Patent US6858741B2, “Alkyl-dihalogenated phenyl-substituted ketoenols useful as pesticides and herbicides” (Bayer Aktiengesellschaft, priority 1995, dated 2005)
Some of these results come from one statement about several compounds together.

Legend:
[1] = system: mustard beetle larvae (Phaedon cochleariae); assay: Phaedon larvae test; format: in vivo; settings: after 7 days; active compound concentration 0.1%; dipped cabbage leaves
Protocol: [table] To produce a suitable preparation of active compound, 1 part by weight of active compound is mixed with the stated amount of solvent and the stated amount of emulsifier, and the concentrate is diluted with water to the desired concentration. Cabbage leaves (Brassica oleracea) are treated by being dipped into the preparation of the active compound of the desired concentration and are infested with mustard beetle larvae (Phaedon cochleariae) while the leaves are still moist. After the specified period of time, the destruction in % is determined. 100% means that all the beetle larvae have been killed; 0% means that none of the beetle larvae have been killed.

[2] = system: fruit tree spider mite (Panonychus ulmi); assay: Panonychus test; format: in vivo; settings: after 7 days; active compound concentration 0.004%; sprayed plum trees

For `Cc1cc(Cl)c(C2=C(OC(=O)OCC(C)C)C3(CCCCC3)SC2=O)c(Cl)c1` [Example I-3-c-1], the destruction [1] was “at least 80%”.

For `Cc1cc(Cl)cc(Cl)c1C1=C(OC(=O)C(C)(C)C)C2(CCCCC2)OC1=O` [Example I-2-b-1, 4-pivaloyl-oxy-3-(2,4-dichloro-6-methyl-phenyl)-5-spiro-cyclohexyl-tetronic acid], the destruction [2] was “at least 95%”.

With `Cc1cc(Cl)c(C2=C(OC(=O)C(C)(C)C)C3(CCCCC3)SC2=O)c(Cl)c1` [Example I-3-b-1] the destruction [1] was “at least 80%”.

In the case of `Cc1cc(Cl)cc(Cl)c1C1=C(O)C2(CCCCC2)OC1=O` [Example I-2-a-1, 3-(2,4-dichloro-6-methyl-phenyl)-5-spirocyclohexyltetronic acid], the destruction [2] is reported as “at least 95%”.
